# The campaign covered roughly 360,000 compounds. About 7,500 (2.1%) were called active. Inconclusive results, whose numbers are uncertain, are shown with a selection of clear calls. Calls come from the whole dose curve; as a rule, active = well fitted inhibition curve with a large enough effect; inconclusive = small, poorly fitted or top-dose-only effect, or effect the other way; inactive = flat fitted curve, though single readings scatter. A potency beside an inconclusive call is a rough fit, not a confirmed value.
# Assay: Nrf2 qHTS screen for inhibitors; note: nearly all actives have a fitted effect of over 60% in size
# Conditions: A549 ARE-Fluc reporter, luciferase luminescence, 18-24 h; series mostly up to 46 µM
# Outline: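 Nrf2 function is reported as luminescence of an ARE-controlled luciferase in A549 cells. Compounds were tested at several concentrations, and a CellTiter-Fluor read on the same wells flagged cytotoxicity.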
# Potency is the fitted concentration of half-maximal effect.
row,Compound,Potency
1,O=C(Nc1cccc(S(=O)(=O)N2CCOCC2)c1)c1ccc2c(=O)n3c(nc2c1)CCCCC3,active: 20.6 µM
2,O=C(NN=C1CCCCCC1)c1ccc2c(c1)OCO2,"inconclusive: 16.4 µM [activator, single point]"
3,O=C(NC1CCCC1)c1cc2c(=O)n3ccccc3nc2s1,"inconclusive: 14.6 µM [activator, single point]"
4,O=C1CC(N2CCOCC2)C(=O)N1Cc1ccc(N2CCCC2=O)cc1 (centres undefined),inactive
5,O=C(c1[nH]ncc1-c1ccc(Cl)cc1)C1CO1 (centres undefined),"inconclusive: 20.6 µM [falling, partial curve]"
6,Cc1ccccc1-n1nnnc1SCC(C)C,"inconclusive: 8.2 µM [activator, partial curve, poor fit]"
7,CN=c1scc(-c2ccc(F)cc2)n1/N=C/c1ccc(O)c(O)c1,active: 20.6 µM
8,COc1ccc(/C(C)=N/NC(=O)c2ccc(NS(=O)(=O)c3cccs3)cc2)cc1,"inconclusive: 0.0116 µM [falling, full curve, poor fit]"
9,CCN1CCN(Cc2ccc(NC(=O)Nc3ccccc3Cl)cc2)CC1,"inconclusive: 2.31 µM [activator, partial curve, poor fit]"
10,CC(=O)c1ccc(NC(=O)c2onc(C)c2Cl)cc1,"inconclusive: 2.06 µM [activator, full curve]"
11,COc1ccc(CCNC(=O)c2cc3c(=O)n4cccc(C)c4nc3n2C)cc1,inactive
12,O=C(C[n+]1ccccc1)Nc1ccccc1,"inconclusive: 4.11 µM [falling, partial curve, poor fit]"
13,O=S(=O)(c1ccc(F)cc1)N1CCc2ccccc21,"inconclusive: 5.17 µM [activator, single point]"
14,C/C(=C\c1ccccc1)C(=O)Nc1nccs1,"inconclusive: 11.6 µM [activator, partial curve]"
15,COc1cccc(/C=C2\CCC(C3CCCC3)C2=O)c1OC (centres undefined),"inconclusive: 29.1 µM [activator, single point]"
16,Cc1cc(C)n2nc3nc4c(cc3c2n1)CCCC4,"inconclusive: 23.1 µM [activator, partial curve, poor fit]"
17,CCC(CC)C(=O)Nc1nnc(S(=O)(=O)N(C)c2cc(C)cc(C)c2)s1,active: 20.6 µM
18,CCOC(=O)c1ccc(OS(=O)(=O)c2ccccc2)c(OC)c1,"inconclusive: 9.2 µM [activator, partial curve]"
19,CC(=O)c1sc(Nc2nc3cc4c(cc3s2)OCO4)nc1C,"inconclusive: 29.1 µM [activator, single point]"
20,CC1(C)S/C(=N/N=C/c2cccs2)NC1=O,"inconclusive: 8.2 µM [activator, single point]"
21,Cc1sc2ncnc(NCCN3CCOCC3)c2c1C,"inconclusive: 8.2 µM [falling, partial curve]"
22,O=C(CCc1nc2ccccc2s1)Nc1ccccc1,"inconclusive: 29.1 µM [falling, single point]"

row,Compound,Potency
1,O=C(/C=C/c1ccccc1)NC(=S)NNS(=O)(=O)c1ccccc1,"inconclusive: 16.4 µM [activator, single point]"
2,Cc1nc(-c2ccc3c(c2)OCCCO3)cs1,"inconclusive: 6.51 µM [activator, partial curve]"
3,CCOc1ccc(S(=O)(=O)N2CCN(C(=O)COc3ccc(Br)cc3)CC2)cc1,active: 16.4 µM
4,CCC(C)C(=O)Nc1nnc(-c2cccs2)s1 (centres undefined),inactive
5,CCN1CCN(c2nc(C)nc3c2sc(=S)n3C)CC1,"inconclusive: 25.9 µM [activator, single point]"
6,CC(Oc1ccccc1)C(=O)NC1CCSc2ccccc21 (centres undefined),"inconclusive: 18.4 µM [falling, partial curve, poor fit]"
7,O=C(O)c1nn(CCOc2cccc(Cl)c2)c(=O)c2ccccc12,"inconclusive: 14.6 µM [falling, partial curve, poor fit]"
8,CCOC(=O)c1c(NC(C)=O)c2c3c(sc2n1Cc1c(C)cc(C)cc1C)CCCC3,"inconclusive: 29.1 µM [falling, single point]"
9,Cc1ccc(NC(=O)c2c3c(nc4ccccc24)CCC3)cc1S(=O)(=O)N(C)C,"inconclusive: 16.4 µM [activator, single point]"
10,Cc1ccc(S(=O)(=O)N2CCCCC2)cc1NC(=O)CNc1ccc(C(F)(F)F)cc1,"inconclusive: 29.1 µM [falling, single point]"
11,COC(=O)c1sccc1NC(=O)Cc1ccc(OC)cc1,inactive
12,Nc1ccccc1/C=N\N=C/c1ccccc1N,"inconclusive: 20.6 µM [activator, partial curve]"
13,O=C(NC1CCCC1)c1ccc(CS(=O)(=O)Cc2ccccc2F)o1,"inconclusive: 29.1 µM [falling, single point]"
14,O=C(NC(=O)c1ccc(F)cc1F)Nc1ccc(Cl)cc1,"inconclusive: 3.66 µM [activator, full curve, poor fit]"
15,CCOc1ccc(NC(=O)CSc2nc3c(c(=O)n2C)SC(C)C3)cc1 (centres undefined),"inconclusive: 29.1 µM [falling, single point]"
16,Cc1ccc2c(c1)N(CC(=O)Nc1ccccc1C(F)(F)F)C(=O)c1cccnc1O2,"inconclusive: 29.1 µM [activator, single point]"
17,COc1ccc(C2CC2/C(C)=N/OC(=O)C2CC2)cc1 (centres undefined),"inconclusive: 4.61 µM [activator, full curve]"
18,Cc1ccc(NC(=O)C(=O)NC(C)C2COc3ccccc3O2)cc1 (centres undefined),"inconclusive: 23.1 µM [falling, partial curve, poor fit]"
19,Cc1ccc(C(=O)NCC(=O)Nc2ccc3c(c2)CCC3)cc1,"inconclusive: 18.4 µM [activator, partial curve]"
20,O=C(C1=C[C@@H](c2ccc3c(c2)OCO3)C[C@@H](OCCCCO)O1)N1CCN(Cc2ccc3c(c2)OCO3)CC1,inactive
21,CCOC(=O)c1scc(-c2ccccc2)c1S(=O)(=O)N1CCN(c2ccc(Cl)cc2)CC1,inactive
22,Cc1ccc(NC(=O)c2ccc(NC(=O)N3CCSc4ncccc43)cc2)c(Cl)c1,inactive

# Quoted from the listing.
# Entry for O=C(c1[nH]ncc1-c1ccc(Cl)cc1)C1CO1 (centres undefined) under Potency: inconclusive: 20.6 µM [falling, partial curve]
# Entry for CCOC(=O)c1scc(-c2ccccc2)c1S(=O)(=O)N1CCN(c2ccc(Cl)cc2)CC1 under Potency: inactive
# Entry for C/C(=C\c1ccccc1)C(=O)Nc1nccs1 under Potency: inconclusive: 11.6 µM [activator, partial curve]
